PubChem BioAssay AID1259405 – NCATS, 2018

- Purpose: 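Knock-downs that lift recombinant protein yield in hamster ovary cells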 (primary screen)
- System: Chinese hamster CHO-K1 ovary cells with stable secreted eGFP expression
- Reagent: single siRNA against mouse genes, 0.8 pmol siRNA per well (2 µl of 400 nM stock)
- Timing: 3 days
- Measurement: 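Percent of the per-plate non-targeting control median for intracellular GFP per well by laser scanning cytometry and for cell viability by ATP luminescence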
- Direction: GFP, % of control: higher = more GFP per well, higher productivity; viability (ATP), % of control: higher = more viable cells (more ATP)
- Rule for the call: 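a knock-down is called active if GFP reaches 120% or more of non-targeting control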
Shown is a random part of about 50,000 reagents. About 4,000 of all reagents (8%) were called active. 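Mouse siRNA library applied to hamster cells; one well for each siRNA.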 The numbers tell different reagents against one gene apart. No sequences are given here.

Depletion of Avpr2 #1 resulted in: GFP, % of control 61.6; viability (ATP), % of control 84.3; inactive.
For Avpr2 #2, the entry reads GFP, % of control 42.8; viability (ATP), % of control 54.3; inactive.
Depletion of Avpr2 #3 came out at: GFP, % of control 71.8; viability (ATP), % of control 51.8; inactive.
Knock-down of Gnai1 #1 resulted in: GFP, % of control 74; viability (ATP), % of control 78.5; inactive.
Gnai1 #2 gave GFP, % of control 56.9; viability (ATP), % of control 56.3; inactive.
Gnai1 #3 gave GFP, % of control 30.3; viability (ATP), % of control 28.6; inactive.
With knock-down of Ppp4r3b #1, the screen gave GFP, % of control 76.6; viability (ATP), % of control 65.4; inactive.
After knock-down of Ppp4r3b #2, the screen gave GFP, % of control 73.9; viability (ATP), % of control 91.3; inactive.
Ppp4r3b #3 gave GFP, % of control 66.6; viability (ATP), % of control 78; inactive.

Laid out differently: entries from further up
Avpr2 #3
- GFP, % of control: 71.8
- viability (ATP), % of control: 51.8
- activity call: inactive

Gnai1 #1
- GFP, % of control: 74
- viability (ATP), % of control: 78.5
- activity call: inactive

Gnai1 #2
- GFP, % of control: 56.9
- viability (ATP), % of control: 56.3
- activity call: inactive

Gnai1 #3
- GFP, % of control: 30.3
- viability (ATP), % of control: 28.6
- activity call: inactive

Further records follow.
Against Mga #1, the values are GFP, % of control 96.5; viability (ATP), % of control 101; inactive.
For Mga #2 the deposit lists GFP, % of control 63.4; viability (ATP), % of control 59.3; inactive.
Mga #3 gave GFP, % of control 99; viability (ATP), % of control 102; inactive.
After knock-down of Sp9 #1 the results were GFP, % of control 64.4; viability (ATP), % of control 64.1; inactive.
Depletion of Sp9 #2 came out at: GFP, % of control 50; viability (ATP), % of control 73.9; inactive.
Against Sp9 #3, the entry reads GFP, % of control 68.4; viability (ATP), % of control 38.4; inactive.
Against Moap1 #1 the deposit lists GFP, % of control 25.2; viability (ATP), % of control 33; inactive.
Moap1 #2 gave GFP, % of control 73.7; viability (ATP), % of control 67.7; inactive.
Silencing of Moap1 #3 gave: GFP, % of control 55.4; viability (ATP), % of control 73.3; inactive.
Depletion of Tmbim6 #1 gave: GFP, % of control 70.4; viability (ATP), % of control 116; inactive.
Against Tmbim6 #2, the values are GFP, % of control 70.2; viability (ATP), % of control 118; inactive.
With knock-down of Tmbim6 #3, the screen gave GFP, % of control 75.9; viability (ATP), % of control 138; inactive.
Depletion of Cyp7a1 #1 gave: GFP, % of control 83.1; viability (ATP), % of control 97.7; inactive.
Cyp7a1 #2 gave GFP, % of control 72.5; viability (ATP), % of control 84.6; inactive.
Cyp7a1 #3 gave GFP, % of control 79.4; viability (ATP), % of control 80.1; inactive.
With knock-down of Kcnb1 #1, the record shows GFP, % of control 71.7; viability (ATP), % of control 71.1; inactive.
With knock-down of Kcnb1 #2, the screen gave GFP, % of control 102; viability (ATP), % of control 60.4; inactive.
Depletion of Kcnb1 #3 came out at: GFP, % of control 52.3; viability (ATP), % of control 43.4; inactive.
